Experimental data: PubChem BioAssay AID1259405 (NCATS, 2018)

Test: 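Knock-downs that lift recombinant protein yield in hamster ovary cells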 (primary screen)
System: Chinese hamster CHO-K1 ovary cells with stable secreted eGFP expression
Reagent: single siRNA against mouse genes, 0.8 pmol siRNA per well (2 µl of 400 nM stock)
Timing: 3 days
Measured: 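Per-well intracellular GFP measured by laser scanning cytometry, plus viability from ATP luminescence, each relative to plate median of non-targeting control wells, in %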
Direction: GFP, % of control: higher = more GFP per well, higher productivity; viability (ATP), % of control: higher = more viable cells (more ATP)
Call rule: 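a knock-down is called active if GFP reaches 120% or more of non-targeting control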
The whole screen tested about 50,000 reagents; shown is a part drawn at random. About 4,000 of them (8%) count as active. 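Mouse siRNA library applied to hamster cells; one well for each siRNA.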 The numbers tell different reagents against one gene apart.

| target gene | reagent no. | GFP, % of control | viability (ATP), % of control | activity call |
| --- | --- | --- | --- | --- |
| Cwf19l2 (CWF19 like cell cycle control factor 2) | 1 | 67.8 | 94.2 | inactive |
| Cwf19l2 (CWF19 like cell cycle control factor 2) | 2 | 73 | 63 | inactive |
| Cwf19l2 (CWF19 like cell cycle control factor 2) | 3 | 100 | 110 | inactive |
| Hsd17b13 (hydroxysteroid (17-beta) dehydrogenase 13) | 1 | 68.9 | 69.4 | inactive |
| Hsd17b13 (hydroxysteroid (17-beta) dehydrogenase 13) | 2 | 50.6 | 48.9 | inactive |
| Hsd17b13 (hydroxysteroid (17-beta) dehydrogenase 13) | 3 | 88.5 | 78.3 | inactive |
| Xpr1 (xenotropic and polytropic retrovirus receptor 1) | 1 | 68.8 | 105 | inactive |
| Xpr1 (xenotropic and polytropic retrovirus receptor 1) | 2 | 59.7 | 88.7 | inactive |
| Xpr1 (xenotropic and polytropic retrovirus receptor 1) | 3 | 91.7 | 69.5 | inactive |
| Acot3 (acyl-CoA thioesterase 3) | 1 | 19.8 | 27.1 | inactive |
| Acot3 (acyl-CoA thioesterase 3) | 2 | 60.5 | 81.1 | inactive |
| Acot3 (acyl-CoA thioesterase 3) | 3 | 45 | 54 | inactive |
| Pias1 (protein inhibitor of activated STAT 1) | 1 | 103 | 90.2 | inactive |
| Pias1 (protein inhibitor of activated STAT 1) | 2 | 120 | 90 | inactive |
| Pias1 (protein inhibitor of activated STAT 1) | 3 | 139 | 144 | active |
| Rab40b (Rab40B, member RAS oncogene family) | 1 | 113 | 124 | inactive |
| Rab40b (Rab40B, member RAS oncogene family) | 2 | 156 | 89.9 | active |
| Rab40b (Rab40B, member RAS oncogene family) | 3 | 92.1 | 54.9 | inactive |
| Cnksr3 (Cnksr family member 3) | 1 | 87.4 | 76.6 | inactive |
| Cnksr3 (Cnksr family member 3) | 2 | 136 | 119 | active |
| Tcea3 (transcription elongation factor A (SII), 3) | 1 | 22.1 | 24.6 | inactive |
| Tcea3 (transcription elongation factor A (SII), 3) | 2 | 74.1 | 49.9 | inactive |
| Tcea3 (transcription elongation factor A (SII), 3) | 3 | 76.8 | 72.1 | inactive |
| Fmnl1 (formin-like 1) | 1 | 84.9 | 84.6 | inactive |
| Fmnl1 (formin-like 1) | 2 | 69.4 | 78.4 | inactive |
| Fancl (Fanconi anemia, complementation group L) | 1 | 65.4 | 78.4 | inactive |
| Fancl (Fanconi anemia, complementation group L) | 2 | 105 | 90 | inactive |
| Fancl (Fanconi anemia, complementation group L) | 3 | 62.6 | 67.6 | inactive |
| Lnx2 (ligand of numb-protein X 2) | 1 | 65.1 | 77.1 | inactive |
| Lnx2 (ligand of numb-protein X 2) | 2 | 184 | 107 | active |
| Lnx2 (ligand of numb-protein X 2) | 3 | 55 | 96 | inactive |
| Cabcoco1 (ciliary associated calcium binding coiled-coil 1) | 1 | 43.5 | 54.2 | inactive |
| Cabcoco1 (ciliary associated calcium binding coiled-coil 1) | 2 | 83.7 | 78.1 | inactive |
| Cabcoco1 (ciliary associated calcium binding coiled-coil 1) | 3 | 79 | 69.8 | inactive |
| Lpcat3 (lysophosphatidylcholine acyltransferase 3) | 1 | 65 | 92.5 | inactive |
| Lpcat3 (lysophosphatidylcholine acyltransferase 3) | 2 | 95 | 89.9 | inactive |
| Tro (trophinin) | 1 | 66.2 | 32.7 | inactive |
| Tro (trophinin) | 2 | 80.5 | 26.7 | inactive |
| Tro (trophinin) | 3 | 127 | 92.6 | active |
| Toe1 (target of EGR1, member 1 (nuclear)) | 1 | 60.8 | 75.8 | inactive |
| Toe1 (target of EGR1, member 1 (nuclear)) | 2 | 63.4 | 94.7 | inactive |
| Toe1 (target of EGR1, member 1 (nuclear)) | 3 | 105 | 109 | inactive |
| Ptk2b (PTK2 protein tyrosine kinase 2 beta) | 1 | 87.6 | 66.5 | inactive |
| Ptk2b (PTK2 protein tyrosine kinase 2 beta) | 2 | 86.7 | 79.7 | inactive |
| Ptk2b (PTK2 protein tyrosine kinase 2 beta) | 3 | 63.6 | 86.9 | inactive |
| Sgcg (sarcoglycan, gamma (dystrophin-associated glycoprotein)) | 1 | 136 | 116 | active |
| Sgcg (sarcoglycan, gamma (dystrophin-associated glycoprotein)) | 2 | 101 | 75.4 | inactive |
| Sgcg (sarcoglycan, gamma (dystrophin-associated glycoprotein)) | 3 | 77.6 | 81.1 | inactive |
| Cirsr (corepressor of RBPJ and splicing regulator) | 1 | 103 | 90.8 | inactive |
| Cirsr (corepressor of RBPJ and splicing regulator) | 2 | 88.2 | 91.1 | inactive |
| Cirsr (corepressor of RBPJ and splicing regulator) | 3 | 50 | 76.5 | inactive |

Called active, among the entries above:
| target gene | reagent no. | GFP, % of control | viability (ATP), % of control | activity call |
| --- | --- | --- | --- | --- |
| Pias1 (protein inhibitor of activated STAT 1) | 3 | 139 | 144 | active |
| Rab40b (Rab40B, member RAS oncogene family) | 2 | 156 | 89.9 | active |
| Cnksr3 (Cnksr family member 3) | 2 | 136 | 119 | active |
| Lnx2 (ligand of numb-protein X 2) | 2 | 184 | 107 | active |
| Tro (trophinin) | 3 | 127 | 92.6 | active |
| Sgcg (sarcoglycan, gamma (dystrophin-associated glycoprotein)) | 1 | 136 | 116 | active |

The results go on:
| target gene | reagent no. | GFP, % of control | viability (ATP), % of control | activity call |
| --- | --- | --- | --- | --- |
| Myh6 (myosin, heavy polypeptide 6, cardiac muscle, alpha) | 1 | 148 | 121 | active |
| Myh6 (myosin, heavy polypeptide 6, cardiac muscle, alpha) | 2 | 80.8 | 116 | inactive |
| Magel2 (MAGE family member L2) | 1 | 79.7 | 49.7 | inactive |
| Magel2 (MAGE family member L2) | 2 | 76.1 | 92.8 | inactive |
| Magel2 (MAGE family member L2) | 3 | 81.5 | 68.4 | inactive |
| Cxcl5 (C-X-C motif chemokine ligand 5) | 1 | 50.9 | 55 | inactive |
| Cxcl5 (C-X-C motif chemokine ligand 5) | 2 | 88.7 | 64.5 | inactive |
| Prpf4 (pre-mRNA processing factor 4) | 1 | 77.4 | 79.5 | inactive |
| Prpf4 (pre-mRNA processing factor 4) | 2 | 49.1 | 84.8 | inactive |
| Prpf4 (pre-mRNA processing factor 4) | 3 | 60.5 | 76.6 | inactive |
| Sval2 (seminal vesicle antigen-like 2) | 1 | 104 | 65.3 | inactive |
| Sval2 (seminal vesicle antigen-like 2) | 2 | 71.2 | 87.1 | inactive |
| Sval2 (seminal vesicle antigen-like 2) | 3 | 159 | 160 | active |
| Paox (polyamine oxidase (exo-N4-amino)) | 1 | 83.6 | 59.3 | inactive |
| Paox (polyamine oxidase (exo-N4-amino)) | 2 | 67.9 | 50.1 | inactive |
| Paox (polyamine oxidase (exo-N4-amino)) | 3 | 88.5 | 73.1 | inactive |
| Rbm11 (RNA binding motif protein 11) | 1 | 99.1 | 102 | inactive |
| Rbm11 (RNA binding motif protein 11) | 2 | 108 | 81.5 | inactive |
| Zfp341 (zinc finger protein 341) | 1 | 71.1 | 98.4 | inactive |
| Zfp341 (zinc finger protein 341) | 2 | 50 | 76.7 | inactive |
| Kat8 (K(lysine) acetyltransferase 8) | 1 | 94.4 | 85.9 | inactive |
| Kat8 (K(lysine) acetyltransferase 8) | 2 | 101 | 43.5 | inactive |
| Kat8 (K(lysine) acetyltransferase 8) | 3 | 100 | 75 | inactive |
| Flrt3 (fibronectin leucine rich transmembrane protein 3) | 1 | 42.7 | 49.9 | inactive |
| Flrt3 (fibronectin leucine rich transmembrane protein 3) | 2 | 76.9 | 83.4 | inactive |
| Flrt3 (fibronectin leucine rich transmembrane protein 3) | 3 | 75.9 | 63.2 | inactive |
| Sncaip (synuclein, alpha interacting protein (synphilin)) | 1 | 81.4 | 83.4 | inactive |
| Sncaip (synuclein, alpha interacting protein (synphilin)) | 2 | 68.7 | 81.6 | inactive |
| Sncaip (synuclein, alpha interacting protein (synphilin)) | 3 | 47.7 | 42.3 | inactive |
| Macroh2a3 (macroH2A.3 histone) | 1 | 118 | 109 | inactive |
| Macroh2a3 (macroH2A.3 histone) | 2 | 85.9 | 102 | inactive |
| Macroh2a3 (macroH2A.3 histone) | 3 | 93.2 | 97.2 | inactive |
| Samd9l (sterile alpha motif domain containing 9-like) | 1 | 15.2 | 36.5 | inactive |
| Samd9l (sterile alpha motif domain containing 9-like) | 2 | 80.5 | 67.1 | inactive |
| Samd9l (sterile alpha motif domain containing 9-like) | 3 | 80.3 | 84.5 | inactive |
